The list shows a part of the results. Further columns of the screen follow, without active or inactive calls. The list favours compounds with an active or inconclusive main result. Potencies come from curve fits of mixed quality, noted in brackets.

The nature of the test: qHTS Assay for Lipid Storage Modulators in Drosophila S3 Cells.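 On cell number change: cells counted by Cell Tracker Red CMTPX staining in the red channel.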 The following applies: BODIPY lipid droplet fluorescence, 18-24 h; for cell number change: measured here: cell count max response, cells fed with added oleic acid. Put shortly: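 Laser-scanning cytometry quantifies lipid droplet accumulation (500–530 nm total intensity; droplet/cell object ratio) in oleic acid-fed (400 uM added) Drosophila S3 cells treated with a concentration series. 20 uM Triacsin C defined 100% inhibition.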

The mark [1] stands for this setting: measured here: lipid fluorescence (Fed channel) AC50, cells fed with added oleic acid.
[2] abbreviates: measured here: cell number channel AC50, cells fed with added oleic acid.

The AC50 is the midpoint of the concentration-response curve, whichever way the signal moves. Read a low AC50 as greater potency. As for `Cc1cccc(CSCCNC(=O)CSCc2ccc([N+](=O)[O-])cc2)c1`, the AC50 under setting [1] was 18.4 µM [falling, single point]. In the case of `COc1ccc(NS(=O)(=O)c2ccc(N3CCOCC3)c(NC(=O)c3ccc(F)cc3)c2)cc1`, the cell number change was found to be 18.5%. Moreover, the AC50 under setting [1] is 32.6 µM [rising, single point]. Turning to `O=C(O)CCN1CCc2ccccc2C1c1ccncc1` (stereo not drawn), the cell number change turned out to be 27.5%. The concentration at half-maximal activity (AC50) under setting [1] was 9.2 µM [rising, partial curve]. For `O=C(CC1S/C(=N/N=C/c2cccs2)NC1=O)Nc1ccccc1F` (stereo not drawn), the cell number change was -19.3%. The concentration at half-maximal activity (AC50) under setting [1] is 0.116 µM [falling, full curve, poor fit]. Consider `O=C(c1cccs1)n1nc(-c2ccco2)nc1SCc1ccccc1`, for which the AC50 under setting [2] is 0.116 µM [falling, full curve, poor fit] and the AC50 under setting [1] was 0.116 µM [falling, full curve, poor fit]. On to `COC(=O)Cn1c(CN2CCN(c3ccc(F)cc3)CC2)nc2c1c(=O)n(C)c(=O)n2C`, for which the cell number change was -46.3%. The half-maximal activity concentration (AC50) under setting [2] is 4.11 µM [falling, full curve]. The AC50 under setting [1] was 5.8 µM [falling, partial curve].

As to `Clc1ccc(-c2nnc(NCCN3CCCC3)c3ccccc23)cc1`, the cell number change came to 48.6%. Moreover, the AC50 under setting [1] was 29.1 µM [rising, single point]. For the compound `CC1CCCN(c2ccc(C(=O)Nc3ccc4c(c3)OCO4)cc2[N+](=O)[O-])C1` (stereo not drawn), the cell number change was -6.34%. The AC50 under setting [1] is 2.31 µM [rising, partial curve]. As to `COc1ccc(-c2nnn(CC(=O)N(CC(=O)NC3CCCC3)Cc3cccs3)n2)cc1OC`, the cell number change was -2.16%. The half-maximal activity concentration (AC50) under setting [1] is 18.4 µM [rising, single point]. As to `Cc1ccc(NC(=O)CN2C(=O)NC(C)(C)C2=O)cc1S(=O)(=O)N1CCCCCC1`, the cell number change came to 29.5%. Take `CCCC(=O)NC(=S)Nc1cccc(Cl)c1N1CCCC1`: the cell number change is -11.4%. The concentration at half-maximal activity (AC50) under setting [1] is 3.26 µM [falling, partial curve]. As to `Cc1cc(NC(=O)CN2C(=O)c3ccccc3C2=O)no1`, the cell number change was -9.24%. The half-maximal activity concentration (AC50) under setting [1] was 0.517 µM [falling, single point].

As for `CC(=O)Nc1ccc(S(=O)(=O)N2CCCCC2C(=O)O)cc1` (stereo not drawn), the cell number change amounted to 15.3%. Also, the AC50 under setting [2] was 0.058 µM [falling, single point]. The AC50 under setting [1] was 0.0651 µM [falling, full curve, poor fit].

As to `O=C(c1ccc(-c2ccccc2)cc1)N1CCN(c2ccccc2)CC1`, the cell number change came out at 13.1%. The half-maximal activity concentration (AC50) under setting [1] was 25.9 µM [rising, single point]. Regarding `O=C(Nc1cccc(NC(=O)c2cccs2)c1)c1ccc(Br)o1`, the cell number change is -31.4%. Further, under setting [2], the AC50 is 32.6 µM [falling, single point]. For the same compound, under setting [1], the AC50 is 29.1 µM [falling, single point]. Take `CN(C(=O)CC(=O)Nc1ccc(Cl)c(Cl)c1)c1ccccc1`: the AC50 under setting [1] is 29.1 µM [rising, single point]. Same read-out and setting: the result for `Cc1ccc(C(=O)NCCNC(=O)c2ccccn2)cc1` reads 35.5 µM [falling, single point]. Turning to `Cc1ccccc1NC(=O)Cc1nc(CN(C)CC(=O)Nc2cccc(F)c2)cs1`, the cell number change is -24.4%. For the compound `Cc1cc(C(F)F)n2nc(C(=O)Nc3cccnc3Cl)nc2n1`, the cell number change came to 1.09%. The AC50 under setting [1] was 2.91 µM [falling, partial curve, poor fit].

Consider `O=C(O)/C=C\C(=O)Nc1ccccc1C(=O)N1CCN(c2ccc(Cl)cc2)CC1`, for which the cell number change came to 22.5%. For the same compound, under setting [1], the concentration at half-maximal activity (AC50) was 8.2 µM [falling, partial curve, poor fit]. As for `CCOCCCNC(=S)NNC(=O)CCn1nc(C)c(Br)c1C`, the AC50 is, setting by setting: under setting [2], 6.51 µM [rising, single point]; under setting [1], 1.84 µM [rising, partial curve]. Consider `Cc1cc(C(=O)COC(=O)CCCN2C(=O)c3ccccc3C2=O)c(C)n1C`, for which the cell number change was found to be 1.42%. The AC50 under setting [1] was 0.0058 µM [rising, full curve, poor fit]. As for `Cc1c(C(=O)OCc2nc3scc(-c4ccccc4)c3c(=O)[nH]2)cccc1[N+](=O)[O-]`, the cell number change was determined as 33.5%. Under setting [2], the concentration at half-maximal activity (AC50) was 6.51 µM [rising, full curve, poor fit].

Take `CCC(OC(=O)c1ccco1)C(=O)NC1CCCC1` (stereo not drawn): the cell number change worked out at 10.4%. In addition, the AC50 under setting [1] is 29.1 µM [rising, single point].

As for `COc1ccc(-c2nc(S(=O)(=O)c3ccc(C)cc3)c(N3CCCC3)o2)cc1`, the cell number change was -104%. Moreover, the AC50 under setting [2] was 4.11 µM [falling, full curve]. The AC50 under setting [1] was 4.11 µM [falling, full curve]. In the case of `CCn1cc(C(=O)NN)c(=O)c2cc(F)c(N3CCN(C)CC3)cc21`, the cell number change worked out at 9.72%. Consider `C/C(=N\NC(=O)CSc1nc2nc(C)cc(C)n2n1)c1ccccc1`, for which the cell number change was -15.6%. Under setting [1], the AC50 was 0.291 µM [rising, full curve]. Take `COc1ccc(NS(=O)(=O)c2cccc(NC(=O)C3=NN(c4ccccc4)C(=O)CC3)c2)cc1`: the cell number change is -44.6%. The AC50 under setting [2] was 14.6 µM [falling, partial curve, poor fit]. In addition, the concentration at half-maximal activity (AC50) under setting [1] is 6.51 µM [falling, single point]. Consider `COc1ccc(OCCCC(=O)Nc2ccc(N3CCOCC3)cc2)cc1`, for which the cell number change worked out at 7.93%. In addition, under setting [1], the half-maximal activity concentration (AC50) was 20.6 µM [rising, partial curve, poor fit]. As to `O=[N+]([O-])c1ccc(S(=O)(=O)NCC(c2cccnc2)N2CCOCC2)cc1` (stereo not drawn), the cell number change was found to be 26.2%. Under setting [1], the concentration at half-maximal activity (AC50) is 29.1 µM [rising, single point].

As to `COc1ccccc1NS(=O)(=O)c1cc(NC(C)=O)ccc1N1CCCCC1`, the cell number change was 36.9%. For the same compound, the concentration at half-maximal activity (AC50) under setting [2] is 2.59 µM [rising, full curve].

Take `COc1ccc(S(=O)(=O)N(C)CC(=O)Nc2c(F)cccc2F)cc1`: the cell number change was determined as 51.1%. Under setting [2], the AC50 is 18.4 µM [rising, single point].

On to `Cc1ccc(C(F)(F)F)cc1NC(N)=S`, for which the cell number change is -1.55%. The half-maximal activity concentration (AC50) under setting [2] was 0.00517 µM [falling, full curve, poor fit]. In the case of `COc1ccc(CNC(=O)CN(C(=O)CCC(=O)Nc2ccccn2)c2cccc(C)c2C)cc1`, the cell number change turned out to be 12.5%. For the same compound, the concentration at half-maximal activity (AC50) under setting [1] was 6.51 µM [rising, single point]. As to `COCc1cc(C)nc(SCC(=O)N2CCC(C)CC2)c1C#N`, the AC50 is 6.51 µM [rising, single point] under setting [2] and 6.51 µM [rising, single point] under setting [1].

For `C/C(=C\c1ccccc1)C(=O)Nc1nc2ccc([N+](=O)[O-])cc2s1`, the cell number change came to 3.06%. Under setting [1], the AC50 was 1.16 µM [falling, full curve]. As for `O=C(c1cc2ccccc2o1)N1CCN=C1SCc1cccnc1`, the cell number change was -15%. The same measure, in the same setting: under `Cc1nc2ccc([N+](=O)[O-])cc2s1` stands -24.4%. As for `CN(C)S(=O)(=O)c1cccc(C(=O)Nc2ccccc2)c1`, the cell number change worked out at 42.3%. The AC50 under setting [1] was 0.058 µM [rising, full curve, poor fit]. As for `COc1cccc(CN2CCNC(=O)C2CC(=O)NC2Cc3ccccc3C2)c1` (stereo not drawn), the cell number change is -22.8%. Further, under setting [1], the AC50 is 29.1 µM [falling, single point].

As for `N/C(=N\OC(=O)c1cc(-c2ccccc2)nc2ccccc12)c1cccnc1`, the cell number change was 16.7%. Besides, the concentration at half-maximal activity (AC50) under setting [2] is 3.26 µM [rising, single point]. As to `O=S(=O)(c1ccccc1)c1cnc(-c2ccccc2)nc1N1CCCCC1`, the cell number change was found to be 14.4%. In addition, the AC50 under setting [1] is 2.31 µM [rising, full curve]. With `CC1COC2C(O1)N(S(C)(=O)=O)CCN2S(C)(=O)=O` (stereo not drawn), the cell number change is -26.8%. Besides, the AC50 under setting [2] was 0.0326 µM [falling, full curve, poor fit].

For `CN1C(=O)[C@@H]2[C@H](C1=O)[C@@H]1C(=O)Nc3ccccc3C(=O)N1[C@@H]2c1ccc(Br)cc1`, the cell number change was 5.02%. Under setting [1], the AC50 is 1.64 µM [falling, partial curve, poor fit]. For `COc1cccc(C2/C(=C(\O)c3ccc4c(c3)OCCO4)C(=O)C(=O)N2CCCN2CCOCC2)c1OC` (stereo not drawn), the cell number change was 32.3%. For the same compound, the half-maximal activity concentration (AC50) under setting [2] is 29.1 µM [rising, single point]. For `Nc1c(-c2ccc(F)cc2)cnn1C1CCS(=O)(=O)C1` (stereo not drawn), the cell number change worked out at 1.47%. Further, the concentration at half-maximal activity (AC50) under setting [1] is 3.26 µM [falling, full curve]. Consider `N#Cc1ccccc1OCC(=O)OCC(=O)c1ccc[nH]1`, for which the cell number change is -5.49%. Besides, under setting [2], the concentration at half-maximal activity (AC50) is 0.82 µM [falling, partial curve]. In addition, under setting [1], the AC50 was 0.82 µM [falling, full curve]. Turning to `COc1ccc(-c2nnc3c4ccccc4c(C)nn23)cc1`, the cell number change amounted to 1.57%. Further, the AC50 under setting [1] is 0.0731 µM [rising, full curve, poor fit].

For `CCC(=O)N1CCc2cc(S(=O)(=O)Nc3ccc4c(c3)OCCO4)ccc21`, the cell number change was -21.9%. `N#Cc1c(NC(=O)CSc2ncn[nH]2)sc2c1CCCC2`: under setting [1], the AC50 is 29.1 µM [rising, single point]. With `OCC1CCCN(C(=S)Nc2ccc(Nc3ccccc3)cc2)C1` (stereo not drawn), the cell number change is -21%. Besides, under setting [2], the AC50 was 2.31 µM [falling, single point]. The half-maximal activity concentration (AC50) under setting [1] is 3.66 µM [falling, partial curve]. As to `CC1=C(C(=O)Nc2cccc(C(=O)N3CCC(C(N)=O)CC3)c2)SCCO1`, the cell number change is -33%. Besides, the AC50 under setting [2] is 4.61 µM [falling, full curve]. Regarding `Cc1nc(N2CCN(c3ccccc3)CC2)[nH]c(=O)c1Cc1cccc2ccccc12`, the cell number change was 29.3%. Take `Cn1c(/C=N/n2cnnc2)nc2ccccc21`: the cell number change was determined as 64.1%. In addition, the AC50 under setting [2] was 14.6 µM [rising, single point].

On to `O=C(O)c1ccccc1SCc1cn2ccccc2n1`, for which the cell number change is -33.2%. In addition, under setting [2], the AC50 was 1.84 µM [falling, partial curve, poor fit]. The AC50 under setting [1] is 0.116 µM [falling, full curve, poor fit]. For `C/C(CC(=O)Nc1ccc([N+](=O)[O-])cc1)=N/NC(=O)C1C2CCCCC21` (stereo not drawn), the cell number change amounted to 39.1%. In addition, the AC50 under setting [2] is 3.26 µM [rising, full curve]. For the same compound, the AC50 under setting [1] was 6.51 µM [rising, partial curve, poor fit]. In the case of `Cc1ccc(N2CC(O)Cn3c2nc2c3c(=O)[nH]c(=O)n2C)cc1` (stereo not drawn), the cell number change came out at 21.7%. The same measure, in the same setting: the result for `Cc1c(Cc2ccccc2)c(=O)oc2cc(OCc3ccc(C(=O)O)cc3)ccc12` reads 30.3%. Regarding `Cc1ccc(-n2ncc3c(NNC(=O)c4ccco4)ncnc32)cc1Cl`, the AC50 under setting [1] is 16.4 µM [falling, single point].
